Measurements as given in PubChem BioAssay AID2685 (National Center for Advancing Translational Sciences (NCATS), 2010).
The other results are listed elsewhere or left out. The main result of the screen is listed elsewhere. These columns were measured beside it and carry no call. The list favours compounds with an active or inconclusive main result. The note in brackets gives the kind of curve behind each potency; many fits are weak.

Test: qHTS Assay for Lipid Storage Modulators in Drosophila S3 Cells;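 as to cell number change: cells counted by Cell Tracker Red CMTPX staining in the red channel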
Details: BODIPY lipid droplet fluorescence, 18-24 h; for cell number change: measured here: cell count max response, cells fed with added oleic acid
In short: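 Drosophila S3 cells got compounds at several concentrations plus oleic acid (400 uM solution). Laser-scanning cytometry with 488 nm excitation read lipid droplets at 500-530 nm and cells at 575-640 nm. Percent activity was relative to 20 uM Triacsin C.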

[1] = measured here: cell number channel AC50, cells fed with added oleic acid
[2] = measured here: lipid fluorescence (Fed channel) AC50, cells fed with added oleic acid

SMILES	cell number change [%]	AC50 [1]	AC50 [2]
CC(=O)N(c1ccc(C)cc1)c1nc(C)cc(C)c1C#N	15.2	–	–
O=C(NCCCN1CCCCC1)c1ccc2c(=O)n(CCc3ccccc3)c(=O)[nH]c2c1	-48.2	18.4 µM [falling, single point]	23.1 µM [rising, single point]
Cc1ccc(N(C)C(=O)C2CCCN2S(=O)(=O)c2ccc3c(c2)n(C)c(=O)c(=O)n3C)cc1 (configuration not stated)	-25.5	–	–
Cc1nn(CC(=O)Nc2ccc(Cl)cc2)c(=O)c2cc(-c3ccccc3)nn12	-8.55	–	0.13 µM [falling, full curve, poor fit]
CCCOC(=O)C[N+](C)(C)CCOC1CC2CCC1(C)C2(C)C (configuration not stated)	22.6	–	–
Cc1cc(C(=O)NC2CC(C)(C)Cc3c2cnn3-c2cccc(F)c2)nn1C (configuration not stated)	-6.65	–	0.00517 µM [rising, full curve, poor fit]
CCOC(=O)C1CCN(C(=O)c2cccc(S(=O)(=O)NCc3ccccc3)c2)CC1	36.4	29.1 µM [rising, single point]	1.16 µM [falling, full curve, poor fit]
COc1ccc(C(=O)NCCNC(=O)c2cc(OCC(F)(F)F)ccc2OCC(F)(F)F)cc1	-12.6	–	8.2 µM [rising, partial curve, poor fit]
C/C(=N\NC(=O)C(O)c1ccccc1)c1ccc(Cl)cc1 (configuration not stated)	-25.5	–	2.91 µM [falling, partial curve]
CC(/C=N/n1c(COc2ccccc2)n[nH]c1=S)=C\c1ccco1	-27.8	–	32.6 µM [falling, single point]
CC(=O)c1coc2c1cc(O)c1ccccc12	9.46	–	6.51 µM [falling, single point]
Cc1ccc(-c2cc(-c3ccccc3Cl)[nH]n2)c(O)c1	-68.5	29.1 µM [falling, single point]	0.00517 µM [falling, full curve, poor fit]
CCCC(=O)Nc1ccc2c(c1)c1ccccc1n2CC	–	6.51 µM [rising, single point]	–
O=c1cc(CSc2nnc(Nc3ccccc3)s2)nc2sccn12	23.6	0.92 µM [rising, full curve, poor fit]	0.82 µM [rising, full curve]
CCN(C(=O)COC(=O)CCOc1cccc(C)c1)c1c(N)n(Cc2ccccc2)c(=O)[nH]c1=O	14.8	–	0.82 µM [falling, single point]
Cn1nnnc1Sc1ncnc2scc(-c3cccs3)c12	10.2	–	0.146 µM [rising, full curve, poor fit]

Copied from the list.
Under AC50 [2], CC(=O)c1coc2c1cc(O)c1ccccc12 is listed with 6.51 µM [falling, single point]
Under AC50 [1], CCCC(=O)Nc1ccc2c(c1)c1ccccc1n2CC is listed with 6.51 µM [rising, single point]
